Test results taken from PMC12822413.
Construct, isoform or probe ends are uncertain for at least one entry. For some of these results: At least one result comes from cells or an extract, where the contact may be indirect. For some of these results: Weaker means in comparison with the reference protein, sequence or condition of that experiment.

The chains behind the UniProt entries cited, without tags or fusion partners. Residues count along the entry.
UniProt P16473, 21-764: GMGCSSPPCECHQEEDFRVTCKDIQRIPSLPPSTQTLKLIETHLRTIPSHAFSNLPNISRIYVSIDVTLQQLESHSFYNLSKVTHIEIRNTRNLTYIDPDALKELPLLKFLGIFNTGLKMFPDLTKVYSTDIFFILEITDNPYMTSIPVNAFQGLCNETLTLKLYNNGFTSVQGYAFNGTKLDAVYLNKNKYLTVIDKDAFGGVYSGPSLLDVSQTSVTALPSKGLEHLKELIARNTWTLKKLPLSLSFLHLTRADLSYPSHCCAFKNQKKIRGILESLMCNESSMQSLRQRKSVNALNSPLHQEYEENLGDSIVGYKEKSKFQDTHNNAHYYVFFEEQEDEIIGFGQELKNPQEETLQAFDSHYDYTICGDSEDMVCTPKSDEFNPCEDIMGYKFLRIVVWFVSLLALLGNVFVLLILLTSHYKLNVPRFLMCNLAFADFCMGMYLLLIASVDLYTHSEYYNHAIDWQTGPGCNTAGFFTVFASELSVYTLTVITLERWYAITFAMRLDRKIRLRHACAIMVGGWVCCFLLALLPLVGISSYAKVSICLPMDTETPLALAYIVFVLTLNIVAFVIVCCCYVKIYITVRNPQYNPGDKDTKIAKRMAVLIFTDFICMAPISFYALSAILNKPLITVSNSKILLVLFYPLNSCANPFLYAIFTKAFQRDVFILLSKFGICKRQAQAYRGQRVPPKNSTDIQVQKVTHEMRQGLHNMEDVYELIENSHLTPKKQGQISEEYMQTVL
UniProt P16473, 21-764 N170A/K218A/D219A/K244A: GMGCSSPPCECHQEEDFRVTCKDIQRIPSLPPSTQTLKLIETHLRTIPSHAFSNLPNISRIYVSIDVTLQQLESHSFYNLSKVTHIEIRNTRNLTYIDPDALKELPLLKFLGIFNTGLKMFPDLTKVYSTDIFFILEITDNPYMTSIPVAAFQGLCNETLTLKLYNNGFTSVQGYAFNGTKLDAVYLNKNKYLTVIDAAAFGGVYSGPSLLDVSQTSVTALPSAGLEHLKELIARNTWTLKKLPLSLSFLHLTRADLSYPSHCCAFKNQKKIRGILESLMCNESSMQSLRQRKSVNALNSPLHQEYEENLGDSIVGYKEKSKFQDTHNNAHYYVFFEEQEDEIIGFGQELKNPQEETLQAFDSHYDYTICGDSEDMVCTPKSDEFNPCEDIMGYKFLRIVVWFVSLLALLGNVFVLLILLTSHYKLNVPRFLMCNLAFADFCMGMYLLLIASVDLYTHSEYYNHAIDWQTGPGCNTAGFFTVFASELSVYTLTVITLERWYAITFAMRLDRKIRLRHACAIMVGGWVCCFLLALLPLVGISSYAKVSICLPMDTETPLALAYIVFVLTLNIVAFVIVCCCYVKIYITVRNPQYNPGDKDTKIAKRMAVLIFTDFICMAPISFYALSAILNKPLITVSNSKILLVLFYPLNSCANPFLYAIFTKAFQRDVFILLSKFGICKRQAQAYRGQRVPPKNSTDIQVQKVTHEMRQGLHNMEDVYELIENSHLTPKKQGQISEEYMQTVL
UniProt P16473, 21-764 K218A: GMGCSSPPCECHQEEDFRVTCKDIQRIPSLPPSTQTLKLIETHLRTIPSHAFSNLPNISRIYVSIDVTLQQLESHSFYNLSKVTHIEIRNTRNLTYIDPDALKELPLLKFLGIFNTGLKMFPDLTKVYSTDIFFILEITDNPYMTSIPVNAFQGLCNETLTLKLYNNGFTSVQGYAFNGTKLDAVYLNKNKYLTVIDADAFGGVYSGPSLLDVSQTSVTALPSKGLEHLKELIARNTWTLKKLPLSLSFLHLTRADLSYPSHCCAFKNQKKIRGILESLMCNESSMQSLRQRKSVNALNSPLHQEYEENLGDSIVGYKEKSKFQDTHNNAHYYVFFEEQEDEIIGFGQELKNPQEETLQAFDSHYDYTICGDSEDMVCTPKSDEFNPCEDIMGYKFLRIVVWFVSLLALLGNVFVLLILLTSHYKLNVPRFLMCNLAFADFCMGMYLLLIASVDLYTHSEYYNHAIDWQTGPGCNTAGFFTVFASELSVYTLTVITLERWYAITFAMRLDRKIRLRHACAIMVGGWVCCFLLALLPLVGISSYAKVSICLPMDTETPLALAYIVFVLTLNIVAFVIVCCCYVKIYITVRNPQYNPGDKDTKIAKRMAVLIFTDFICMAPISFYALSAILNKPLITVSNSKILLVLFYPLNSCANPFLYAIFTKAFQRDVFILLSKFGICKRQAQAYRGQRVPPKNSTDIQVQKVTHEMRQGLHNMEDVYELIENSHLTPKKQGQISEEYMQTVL

What was measured:
[1] = target: TSHR on TSHR-293T cells (Homo sapiens) (UniProt P16473); assay: flow cytometry; settings: Flow: DPBS, 5 mM MgCl2, 4.5 g/L glucose, 0.1 mg/mL yeast tRNA, 1 mg/mL BSA, 4 C 30 min, protein on the cell surface
[2] = target: TSHR on TSHR-293T cells (Homo sapiens) (UniProt P16473); assay: competition with a labelled probe; settings: protein on the cell surface
[3] = target: TSHR in membrane protein extract of TSHR-293T cells (Homo sapiens) (UniProt P16473); assay: pull-down; settings: biotin-YC3, no TSHR with beads alone or library; protein in a lysate after overexpression; folded or branched DNA
TSHR-LRD = assay: circular dichroism; settings: YC3 titration lowers 215 nm ellipticity; recombinant protein; folded or branched DNA
[4] = target: endogenous TSHR on Nthy-ori 3-1 cells (Homo sapiens) (UniProt P16473); assay: flow cytometry; settings: binding decreased by TSHR siRNA; Flow: DPBS, 5 mM MgCl2, 4.5 g/L glucose, 0.1 mg/mL yeast tRNA, 1 mg/mL BSA, 4 C 30 min; protein on the cell surface; folded or branched DNA
[5] = target: TSHR quadruple alanine mutant N170A,K218A,D219A,K244A (Homo sapiens) (UniProt P16473); assay: flow cytometry; settings: most reduced of all mutants; Flow: DPBS, 5 mM MgCl2, 4.5 g/L glucose, 0.1 mg/mL yeast tRNA, 1 mg/mL BSA, 4 C 30 min; protein on the cell surface; folded or branched DNA
[6] = target: TSHR K218A (Homo sapiens) (UniProt P16473); assay: flow cytometry; settings: largest decrease among single mutants; Flow: DPBS, 5 mM MgCl2, 4.5 g/L glucose, 0.1 mg/mL yeast tRNA, 1 mg/mL BSA, 4 C 30 min; protein on the cell surface; folded or branched DNA
[7] = 500 nM aptamer, label: FAM, folded or branched DNA
[8] = 250 nM aptamer, no binding to MOCK cells, label: FAM, single-stranded DNA
[9] = 250 nM aptamer, not among the more intense binders, label: FAM, single-stranded DNA

ACCGACCGTGCGATGAACAATCGATGGAAGATTGGGTCGCACCGGCCTCTTTCACTATGAGCGAGCCTGGCG [YC3-a]
binding result [1, 7]: binds more weakly

ACCGACCGTGCTGGACTCAATCCATCGTCGACGAGCATACGAAGGGAGGGTATTGTAAGGGACTATGAGCGAGCCTGGCG [YC2]
binding result [1, 8]: binds

ACCGACCGTGCTGGACTCAGACGGAATCGTCCTTTGTCTACGTGCGGTCTAGACTGTATAGACTATGAGCGAGCCTGGCG [YC5]
binding result [1, 9]: binds

ACCGACCGTGCTGGACTCAGATGAACAATCGATGGAAGATTGGGTCGCACCGGCCTCTTTCACTATGAGCGAGCCTGGCG [PS-YC3-PEG]
binding result ([2]; excess unlabeled PS-YC3-PEG inhibits FAM-YC3, phosphorothioate at 5 nucleotides of each terminus, 3' thiol coupled to 10 kDa maleimide-PEG, label: FAM or none, synthetic backbone): binds | binding result ([1]; binding not compromised versus YC3, phosphorothioate at 5 nucleotides of each terminus, 3' thiol coupled to 10 kDa maleimide-PEG, label: FAM or none, synthetic backbone): binds

ACCGACCGTGCTGGACTCAGATGAACAATCGATGGAAGATTGGGTCGCACCGGCCTCTTTCACTATGAGCGAGCCTGGCG [YC3]
binding result [3]: binds | binding result (TSHR-LRD): binds | binding result ([2]; excess M22 antibody does not inhibit YC3 binding, folded or branched DNA): binds | binding result ([2]; excess unlabeled YC3 inhibits FAM-PS-YC3-PEG, folded or branched DNA): binds | binding result ([1]; 37 C, stronger signal than at 4 C, folded or branched DNA): binds | binding result [4]: binds | binding result [5]: binds more weakly | binding result [6]: binds more weakly

ACCGACCGTGCTGGACTCAGATGAACTGGGTCGCACCGGCCTCTTTCACTATGAGCGAGCCTGGCG [YC3-b]
binding result [1, 7]: binds more weakly

ACCGACCGTGCTGGACTCAGCCGTGACGTTCTACAGAGAACGGGTGGACCCGCCTCCTCACTATGAGCGAGCCTGGCG [YC8]
binding result [1, 8]: binds

ACCGACCGTGCTGGACTCAGCCGTGACGTTCTACAGAGAACGGGTGGATCCCGCCTCTTCACTATGAGCGAGCCTGGCG [YC6]
binding result [1, 8]: binds

ACCGACCGTGCTGGACTCAGGGCGCATCTTTGGTAAGCAAAGATGGGTTGCAAGCCTCTCGACTATGAGCGAGCCTGGCG [YC1]
binding result [1, 8]: binds

ACCGACCGTGCTGGACTCAGGGTGGGTCGTTTCATAGGAAACGGGTGGAACGCCTCTAGCCACTATGAGCGAGCCTGGCG [YC4]
binding result [1, 9]: binds

ACCGACCGTGCTGGACTCATGGTCACATCTATCGTACTAGCATGGGTCAATTGGCCTCTTGACTATGAGCGAGCCTGGCG [YC7]
binding result [1, 8]: binds
